This note sets out measurements from patent US20220356238A1.

Results are given in words; binding and its absence hold for the method and conditions named. Some binding calls cover weakened binding; strength is not graded here.

The target in experiment [1] is T1, Human C-C motif chemokine 14 (CCL14) (human) (UniProt Q16627).
T1 sequence: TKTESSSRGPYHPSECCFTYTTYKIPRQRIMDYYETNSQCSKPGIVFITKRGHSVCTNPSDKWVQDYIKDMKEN
Put plainly: peptide array of CCL14-derived peptides; epitope identified from binding to the array.

For experiment [2], the target named is T1, Human C-C motif chemokine 14 (CCL14) (human). Briefly: sandwich ELISA; human CCL14 captured by MAB3241, detection antibody read with goat anti-rabbit-HRP.
For experiment [3] the target is unchanged. Put plainly: sandwich ELISA; human CCL14 captured by antibody F, detection antibody read with goat anti-rabbit-HRP.
For experiment [4] the target is unchanged. Put plainly: sandwich ELISA; human CCL14 captured by antibody B, detection antibody read with goat anti-rabbit-HRP.

B1: 15H1/15K3 (antibody, V domains shown)
VH: QSLEESGGDLVKPGASLTLTCTASGFSFSRSYYVCWVRQAPGKGLEWIVCIYGGSSDTTYYASWAKGRFTISKTSSTTVTLQLNSLTAADTATYFCARRDVSGGYDYGMDLWGQGTLVTVSS
VL: AYDMTQTPASVEVAVGGTVTIKCQASEDIESYLAWYQQKPGQPPKLLIYDASDLASGVPSRFKGSGSGTEYTLTISDLECDDAATYYCRQGYSSSNVDNVFGGGTEVVVKG
Regarding B1, the binding result in experiment [1] was “binds”.

B2: 9H3/9K2 (antibody, V domains shown)
VH: QSVKESEGGLFKPTDTLTLTCTVSGFSLNSYGVNWVRQAPGNGLEYIGTVGSSGSAYYASWAKSRSTITRNTNLNTVTLKMTSLTAADTATYFCARGLIATMSIWGQGTLVTVSS
VL: AQVLTQTASSVSAAVGGTVTISCQSSQSVHSNNYLAWYQQKPGQPPKQLIYLASTLASGVPSRFKGSGSGTQFTLTISDLECDDAATYYCAGGYSGMIFTFGGGTEVVVKG
As for B2, in experiment [1], the binding result was “binds”.

B3: 24H1/24K1 (antibody, V domains shown)
VH: QSLEESGGDLVKPGASLTLTCIGSGFDFSSNAIWWVRQAPGKGLEWIACLYGGTSGSTEYATWAKGRFTISKTSSTTVTLQMTSLTDADTATYYCAGGVVTWSYPRQLYLWGQGTLVTVSS
VL: DVVMTQTPASVSAVVGGTVTIKCQASQSISSWLSWYQQKLGQPPKLLIYSASTLASGVPSRFKGSGSGADYTLTISDLECADAATYYCQSNTAVHTYNFGGGTEVVVKG
With B3, the binding entry in experiment [1], in experiment [2], in experiment [3] and in experiment [4] was “binds” throughout.

B4: 5H2/5K3 (antibody, V domains shown)
VH: QSVKESEGGLFKPTDTLTLTCTVSGFSLYSGAINWVRQAPGEGLQYIGWISDVGSAYYASWAKSRSTITRNTNENTVTLKMTSLTAADTATYFCARGDGSSGNYWVTDIWGQGTLVTVSS
VL: AVVLTQTASPVSAPVGGTVTINCQASESISSRLAWYQQKPGQPPKLLIYGASTLASGVPSRFKGSGSGTEFTLTISDLECADAATYSCQEYLSDNTFGGGTEVVVKG
For the molecule B4, the binding entry in experiment [1], in experiment [2], in experiment [3] and in experiment [4] was “binds” each time.

B5: 8H3/8K3 (antibody, V domains shown)
VH: QSVKESEGGLFKPTDTLTLTCTVSGFSLYSGAINWVRQAPGEGLQYIGWISDVGSAYYASWAKSRSTITRNTNENTVTLKMTSLTAADTATYFCARGDGSSGNYWVTDIWGQGTLVTVSS
VL: AVVLTQTASPVSAPVGGTVTINCQASESISSRLAWYQQKPGQPPKLLIYGASTLASGVPSRFKGSGSGTEFTLTISDLECADAATYSCQEYLSDNTFGGGTEVVVKG
For B5, the binding result in experiment [1], in experiment [2], in experiment [3] and in experiment [4] was “binds” throughout.

B6: 14H1/14K1 (antibody, V domains shown)
VH: QSLEESGGDLVKPGAFLTLTCTASGFSFSGSDYMWWVRQAPGKGLEWIACIYGGYSGSTYYASWAKGRFTISKTSSTTVTLQMTRLTAADTAIYFCARDGGVTHFSHFDLWGQGTLVTVSS
VL: DVVMTQTPASVSEPVGGTVTIKCQASEDIYRLLAWYQQKPGQPPKLLIYGASTLASGVPSRFSGSGSGTEYTLTINDLECADAATYYCQYITYGSDVLTAFGGGTEVVVKG
As to B6, the binding result in experiment [1] and in experiment [2] was “binds” in each case.
